Test results reported in article PMC4438588.
No constants are given. Whether binding was seen depends on the method and setting. For some assays here: In cells and extracts the contact can be indirect. Some binding calls cover weakened binding; strength is not graded here. Where a sequence is shown, tags or fusion partners need not be part of it. One block for each binder: values may come before it.

Columns and labels:
[1] = target: T1, FLAG-CycG 1 to 130 (Drosophila melanogaster) (UniProt Q95TJ9); assay: co-IP; co-transfected S2 cells, 1% paraformaldehyde 10 min on ice before extraction; 500 μg total cell extract, anti-Myc, anti-FLAG or anti-HA (mock) overnight at 4°C, Protein G beads, ELB buffer washes; Western blot with anti-Myc and anti-FLAG
T1 sequence: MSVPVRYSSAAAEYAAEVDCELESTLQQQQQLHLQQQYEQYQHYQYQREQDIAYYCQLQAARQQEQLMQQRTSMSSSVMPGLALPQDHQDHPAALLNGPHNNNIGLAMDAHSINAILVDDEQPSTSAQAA

[2] = target: Additional sex combs (ASX), endogenous (Drosophila melanogaster (endogenous in third instar larvae)) (UniProt Q9V727); assay: co-IP; protein extracts of da > Myc-CycG^ΔP third instar larvae, 1% paraformaldehyde 10 min at room temperature; anti-Myc, anti-ASX N-ter or anti-HA (mock) on Dynabeads Protein G, overnight at 4°C, ELB buffer washes; Western blot with anti-Myc
[3] = target: T2, ASX-C terminal domain (ASX-C, amino-acids 1139 to 1668), two-hybrid bait (Drosophila) (UniProt Q9V727); assay: two-hybrid; yeast two-hybrid assays, data not shown; ASX-C with Cyclin G 1 to 275
T2 sequence: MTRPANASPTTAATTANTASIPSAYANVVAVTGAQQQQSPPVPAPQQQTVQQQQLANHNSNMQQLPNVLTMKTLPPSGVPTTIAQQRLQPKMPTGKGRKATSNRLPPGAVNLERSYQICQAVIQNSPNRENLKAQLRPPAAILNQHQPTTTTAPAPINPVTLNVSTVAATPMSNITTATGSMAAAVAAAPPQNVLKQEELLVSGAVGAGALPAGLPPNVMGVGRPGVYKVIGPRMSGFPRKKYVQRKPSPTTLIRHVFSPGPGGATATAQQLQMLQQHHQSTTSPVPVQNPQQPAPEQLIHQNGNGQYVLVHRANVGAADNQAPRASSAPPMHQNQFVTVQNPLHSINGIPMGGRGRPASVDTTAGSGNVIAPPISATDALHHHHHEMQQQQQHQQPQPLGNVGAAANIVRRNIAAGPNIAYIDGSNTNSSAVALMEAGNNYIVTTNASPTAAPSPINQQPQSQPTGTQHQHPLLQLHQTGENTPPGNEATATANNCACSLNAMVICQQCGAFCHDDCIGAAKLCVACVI

[4] = target: T3, Myc-ASX-C (amino-acids 1139 to 1668) (Drosophila melanogaster) (UniProt Q9V727); assay: co-IP; co-transfected S2 cells, 1% paraformaldehyde 10 min on ice before extraction; 500 μg total cell extract, anti-Myc, anti-FLAG or anti-HA (mock) overnight at 4°C, Protein G beads, ELB buffer washes; Western blot with anti-Myc and anti-FLAG
T3 sequence: T2 sequence

binding [1]: binds
B1: Myc-ASX-C (amino-acids 1139 to 1668) (domain or fragment, UniProt Q9V727 1139-1668)
chain: T2 sequence

binding [2]: binds
B2: Myc-Cyclin G deleted of the 25 C-terminal amino-acids (Myc-CycG^ΔP) (domain or fragment, UniProt Q95TJ9 1-541)
chain: MSVPVRYSSAAAEYAAEVDCELESTLQQQQQLHLQQQYEQYQHYQYQREQDIAYYCQLQAARQQEQLMQQRTSMSSSVMPGLALPQDHQDHPAALLNGPHNNNIGLAMDAHSINAILVDDEQPSTSAQAAAAAAASAGGSAGAGSGSGLGGAIGGGKLANGINRNAEMPTDWMRIADEGRYGTPGAAGLEYQKYEQQQQLEDLAESEAGAVGGASNNNGESSSSLKKLEDQLHALTSDELYETLKEYDVLQDKFHTVLLLPKESRREVTAGGRDGSAYVLRCLKMWYELPSDVLFSAMSLVDRFLDRMAVKPKHMACMSVASFHLAIKQLDLKPIPAEDLVTISQCGCTAGDLERMAGVIANKLGVQMGHAPITSVSYLRIYYALFRNLAKEIGGDFFKFYQQLIKLEELENRLEILMCDVKTTVITPSTLALVLICLHLDFHIKESYTRGSPELKHVFEYILFLQQYMRIPDRVFTCGFSIVSGILSHYNGQNKAPYKQRLVWKLSSRTLRVLRPINRFSSDLPTIEEGIPNALDDGLRS

binding [3]: binds
B3: Cyclin G deleted form containing only the 275 N-terminal residues, two-hybrid fusion (domain or fragment, UniProt Q95TJ9 1-275)
chain: MSVPVRYSSAAAEYAAEVDCELESTLQQQQQLHLQQQYEQYQHYQYQREQDIAYYCQLQAARQQEQLMQQRTSMSSSVMPGLALPQDHQDHPAALLNGPHNNNIGLAMDAHSINAILVDDEQPSTSAQAAAAAAASAGGSAGAGSGSGLGGAIGGGKLANGINRNAEMPTDWMRIADEGRYGTPGAAGLEYQKYEQQQQLEDLAESEAGAVGGASNNNGESSSSLKKLEDQLHALTSDELYETLKEYDVLQDKFHTVLLLPKESRREVTAGGRDG

binding [4]: binds
B4: FLAG-CycG 130 to 566 (domain or fragment, UniProt Q95TJ9 130-566)
chain: AAAAAASAGGSAGAGSGSGLGGAIGGGKLANGINRNAEMPTDWMRIADEGRYGTPGAAGLEYQKYEQQQQLEDLAESEAGAVGGASNNNGESSSSLKKLEDQLHALTSDELYETLKEYDVLQDKFHTVLLLPKESRREVTAGGRDGSAYVLRCLKMWYELPSDVLFSAMSLVDRFLDRMAVKPKHMACMSVASFHLAIKQLDLKPIPAEDLVTISQCGCTAGDLERMAGVIANKLGVQMGHAPITSVSYLRIYYALFRNLAKEIGGDFFKFYQQLIKLEELENRLEILMCDVKTTVITPSTLALVLICLHLDFHIKESYTRGSPELKHVFEYILFLQQYMRIPDRVFTCGFSIVSGILSHYNGQNKAPYKQRLVWKLSSRTLRVLRPINRFSSDLPTIEEGIPNALDDGLRSRTESISSEEEEDWPTSPIIPIFEQC

binding [4]: binds
B5: FLAG-Cyclin G full-length (protein, UniProt Q95TJ9 1-566)
chain: MSVPVRYSSAAAEYAAEVDCELESTLQQQQQLHLQQQYEQYQHYQYQREQDIAYYCQLQAARQQEQLMQQRTSMSSSVMPGLALPQDHQDHPAALLNGPHNNNIGLAMDAHSINAILVDDEQPSTSAQAAAAAAASAGGSAGAGSGSGLGGAIGGGKLANGINRNAEMPTDWMRIADEGRYGTPGAAGLEYQKYEQQQQLEDLAESEAGAVGGASNNNGESSSSLKKLEDQLHALTSDELYETLKEYDVLQDKFHTVLLLPKESRREVTAGGRDGSAYVLRCLKMWYELPSDVLFSAMSLVDRFLDRMAVKPKHMACMSVASFHLAIKQLDLKPIPAEDLVTISQCGCTAGDLERMAGVIANKLGVQMGHAPITSVSYLRIYYALFRNLAKEIGGDFFKFYQQLIKLEELENRLEILMCDVKTTVITPSTLALVLICLHLDFHIKESYTRGSPELKHVFEYILFLQQYMRIPDRVFTCGFSIVSGILSHYNGQNKAPYKQRLVWKLSSRTLRVLRPINRFSSDLPTIEEGIPNALDDGLRSRTESISSEEEEDWPTSPIIPIFEQC
